Results taken from PubChem BioAssay AID504467 (National Center for Advancing Translational Sciences (NCATS), 2011).
Hit rate of the full screen: of about 330,000 compounds, about 7,700 (2.3%) were called active. This list was built around the results that the source calls inconclusive (neither active nor inactive); the mix of calls is not that of the screen. The call rests on the fitted dose curve; in most records, active means well fitted inhibition curve with a large enough effect; inconclusive means small, poorly fitted or top-dose-only effect, or effect the other way; inactive means flat fitted curve, though single readings scatter. Potencies beside an inconclusive call are fits to weak or partial responses and may not hold up.

experiment: qHTS screen for small molecules that inhibit ELG1-dependent DNA repair in human embryonic kidney (HEK293T) cells expressing luciferase-tagged ELG1; conditions: HEK293T ELG1-luciferase reporter, luminescence, 16 h, DNA damage induced by 5-fluorouridine; activity change, negative = inhibition: at 46.1 µM (top of the series); further: nearly all actives have a fitted effect of over 55% in size
Summary of the method: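 HEK293T cells expressing luciferase-tagged ELG1 (2,000/well) received 5-Fluorouridine plus compound or DMSO for 16 hr at 37 °C. Luciferase was read by ONE-Glo luminescence after 30 min at room temperature.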
On the % scale 0 is the no-effect control and ±100 the full control effect; potency means the concentration at half of the fitted maximal effect.

Row | SMILES | activity change, negative = inhibition | Potency
1 | Cc1cc(/C=N/NC(=O)COc2cccc3cccnc23)c(C)n1-c1ccc(O)cc1 | inactive: -2.29% | 
2 | Nc1nc(N)c2sc3nc4c(cc3c2n1)CCC4 |  | inconclusive: 18.4 µM [activator, single point]
3 | CS(=O)(=O)Nc1ccc(C2=NN(S(C)(=O)=O)C(c3cccs3)C2)cc1 (configuration not stated) |  | inconclusive: 14.6 µM [activator, partial curve]
4 | CC(NC(=O)C(=O)c1cn(CC(=O)N2CCOCC2)c2ccccc12)c1ccccc1 (configuration not stated) | inactive: 12.2% | 
5 | O=C(c1ccc2c3c(cccc13)CC2)C1CCCN(Cc2ccccn2)C1 (configuration not stated) |  | inconclusive: 25.9 µM [inhibitor, partial curve]
6 | O=[N+]([O-])c1ccc(S(=O)(=O)Nc2ccc(-c3ccc(N4CCCC4)nn3)cc2)cc1 | inactive: 23.6% | 
7 | CCC(C)(C)C1CCC2(CC1)NC(=O)N(CC(=O)N(C)Cc1ccc3c(c1)OCCO3)C2=O (configuration not stated) |  | active: 11.6 µM
8 | COC(=O)CSc1nc(C)c2ccc(OC)cc2n1 |  | inconclusive: 20.6 µM [activator, single point]
9 | Nc1nonc1-n1nnc(C(=O)N/N=C/c2ccc(OCc3ccccc3)cc2)c1COc1ccc(F)cc1 |  | inconclusive: 16.4 µM [activator, partial curve]
10 | Cc1ccc(C(c2c(C)nn(-c3ccccc3)c2N)c2c(C)nn(-c3ccccc3)c2N)cc1 |  | inconclusive: 18.4 µM [inhibitor, single point]
11 | COc1ccc(-c2nc(CS(=O)(=O)CC(=O)NCCCc3ccccc3)c(C)o2)cc1 |  | inconclusive: 16.4 µM [inhibitor, single point]
12 | O=C(NCCn1cc(SCC(=O)N2CCOCC2)c2ccccc21)c1c(F)cccc1F |  | inconclusive: 18.3 µM [inhibitor, single point]
13 | O=C(CSc1nc2c([nH]c3ccccc32)c(=O)n1-c1ccc(F)cc1)NCc1ccco1 |  | inconclusive: 8.2 µM [inhibitor, partial curve, poor fit]
14 | Cc1nc2ccccc2c(=O)n1CCCO | inactive: -1% | 
15 | NC(=O)c1ccccc1NC(=O)/C=C/c1ccccc1 |  | inconclusive: 9.2 µM [activator, partial curve]
16 | c1ccc(-c2nnc(CN3CCN(C(c4ccccc4)c4ccccc4)CC3)o2)cc1 |  | inconclusive: 0.164 µM [inhibitor, full curve, poor fit]
17 | O=c1oc(-c2cccs2)nc2sc3c(c12)CCCCC3 |  | inconclusive: 3.98 µM [activator, full curve, poor fit]
18 | CC1(C)CC(=O)C2=C(C1)NC1=C(C(=O)c3ccccc31)C2c1ccc(O)cc1 (configuration not stated) | inactive: 8.51% | 
19 | N#Cc1c(NC(=O)C2CCCO2)sc2c1CCCCC2 (configuration not stated) |  | inconclusive: 5.8 µM [activator, full curve]
20 | CNc1c(N)n(Cc2ccccc2)c(=O)[nH]c1=O |  | inconclusive: 20.6 µM [activator, partial curve, poor fit]
21 | CCCn1nc(NC(=O)c2cccs2)c2cc3ccccc3nc21 |  | inconclusive: 14.1 µM [inhibitor, partial curve, poor fit]

Row | SMILES | activity change, negative = inhibition | Potency
22 | COc1ccc(S(=O)(=O)NNC(=O)Nc2ccc(C)cc2C)c(OC)c1 | inactive: -0.559% | 
23 | CCOC(=O)C1=CN(Cc2ccco2)S(=O)(=O)N(CC)C1c1cccc(OC)c1 (configuration not stated) | inactive: 1.61% | 
24 | c1coc(-c2nc(-c3ccncc3)no2)c1 |  | inconclusive: 9.2 µM [activator, partial curve]
25 | Cc1cccc(CSc2nnc3c(n2)[nH]c2ccccc23)c1 |  | inconclusive: 3.66 µM [inhibitor, partial curve, poor fit]
26 | O=c1cc(CSc2nc3ccccc3c(=O)[nH]2)c2ccc(O)cc2o1 |  | inconclusive: 10.3 µM [inhibitor, partial curve, poor fit]
27 | Cc1onc(-c2c(Cl)cccc2Cl)c1C(=O)N=C(N)N1CC(C)OC(C)C1 (configuration not stated) |  | inconclusive: 16.4 µM [inhibitor, partial curve, poor fit]
28 | CC1(c2ccc(Cl)cc2Cl)NC(=O)N(CC(=O)NC2CCCCC2)C1=O (configuration not stated) | inactive: -15.7% | 
29 | Cc1ccc(NC(=O)C2C3C=CC4(O3)C2C(=O)N(CCN2CCOCC2)C4C(=O)NC2CCCCC2)cc1C (configuration not stated) |  | inconclusive: 29.1 µM [activator, partial curve, poor fit]
30 | CCCNC(=O)/C(=C/c1cn(S(=O)(=O)N(C)C)c2ccccc12)NC(=O)c1ccc(OC)cc1 |  | inconclusive: 29.1 µM [inhibitor, single point]
31 | Fc1ccc(COc2ccc(Br)cc2CNCC2CCCO2)cc1 (configuration not stated) | inactive: -12.8% | 
32 | COCCN(C(=O)CSc1nc2ccccc2c(=O)n1CC(C)C)c1c(N)n(Cc2ccccc2)c(=O)[nH]c1=O |  | inconclusive: 29.1 µM [inhibitor, single point]
33 | COc1ccnc(N=CNOCc2cccc(Cl)c2Cl)c1C#N |  | inconclusive: 10.3 µM [activator, partial curve, poor fit]
34 | Cc1ccc(S(=O)(=O)c2nnn3c2nc(N2CCC(C(N)=O)CC2)c2ccccc23)cc1 | inactive: 2.84% | 
35 | Cc1ccc(CNC(=O)c2ccc(N3CCC4(CC3)CC(c3ccccc3)=NO4)c([N+](=O)[O-])c2)cc1 |  | inconclusive: 25.9 µM [inhibitor, single point]
36 | CN(Cc1cccnc1)C(=O)Cc1ccc(NS(=O)(=O)c2cccc(C(F)(F)F)c2)cc1 |  | inconclusive: 16.4 µM [inhibitor, single point]
37 | O=c1cc(-c2ccccc2)[nH]n1-c1ccc([N+](=O)[O-])cc1 |  | inconclusive: 23.1 µM [activator, single point]
38 | Cc1nn2c3ccccc3n(CCN3CCCCC3)c2nc1=O | inactive: 5.93% | 
39 | CCCOc1ccc(C(=O)NC(C)C(=O)O)cc1 (configuration not stated) |  | inconclusive: 23.1 µM [activator, single point]
40 | O=C(c1ccc2c(c1)N(Cc1ccc(F)cc1)C(=O)c1ccccc1S2(=O)=O)N1CCN(c2ccccn2)CC1 |  | inconclusive: 4.11 µM [inhibitor, single point]
41 | Cc1c(O)ccc(/C=N/Nc2nc(-c3cccnc3)nc3ccccc23)c1O |  | active: 5.17 µM
42 | O=C(Nc1ccc(S(=O)(=O)N2CCCC2)cc1)C1CC(=O)N(CCc2ccc(F)cc2)C1 (configuration not stated) | inactive: -18.2% | 

2 entries drawn at random from those above:
Row | SMILES | activity change, negative = inhibition | Potency
22 | COc1ccc(S(=O)(=O)NNC(=O)Nc2ccc(C)cc2C)c(OC)c1 | inactive: -0.559% | 
38 | Cc1nn2c3ccccc3n(CCN3CCCCC3)c2nc1=O | inactive: 5.93% | 
